Taken from: PubChem BioAssay AID1053208 (Peter MacCallum Cancer Centre, 2014)

Aim: 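Genes whose silencing cuts survival of bone tumour cells only with doxorubicin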 (primary screen)
System: mouse osteosarcoma cells, early-passage culture from an engineered mouse model of fibroblastic bone tumour
Reagent: siRNA pool against mouse genes, 40 nM
Duration: about 120 h (48 h before drug, then 72 h with drug)
Treatment: doxorubicin 100 nM for 72 h, roughly 30-40% inhibitory dose
Measured: 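Viability read as ATP luminescence after 72 h of 100 nM doxorubicin or none, duplicate wells averaged, scaled to non-targeting siRNA, then expressed as robust z-scores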
Scale: viability z-score with doxorubicin and doxorubicin viability vs non-targeting: higher = more viable cells under doxorubicin; viability z-score without drug: higher = more viable cells with knock-down alone; z-score of drug to no-drug ratio: higher = less drug sensitisation by knock-down
Active means: 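Called active if knock-down leaves viability unchanged without drug (z within -2 to 2) but lowers it with doxorubicin (z at or under -2)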
Here is one part, drawn at random, of about 17,000 reagents. Over the whole deposit, 788 (4.7%) are marked active. 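Calls rest on z-score classes alone; an extra cut-off of viability at most 70% of control was not applied to them.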

no.	target	combined z-score class	viability z-score with doxorubicin	viability z-score without drug	z-score of drug to no-drug ratio	doxorubicin viability vs non-targeting	Outcome
1	Cartpt (GeneID 27220)	no change with or without drug	-0.45	0.51	-0.67	0.9	inactive
2	Vmn1r32 (GeneID 171188)	no change with or without drug	1.91	1.85	0.79	1.11	inactive
3	Nfkb2 (GeneID 18034)	no change with or without drug	-0.45	-0.84	0.22	0.9	inactive
4	Nap1l1 (GeneID 53605)	no change with or without drug	-0.45	-0.84	0.22	0.9	inactive
5	Ebf3 (GeneID 13593)	no change with or without drug	-0.9	0.17	-0.9	0.86	inactive
6	1810043J12RIK	low cell count with doxorubicin only	-2.7	0.17	-2.81	0.7	active
7	Pafah1b1 (GeneID 18472)	no change with or without drug	0	-1.85	1.57	0.94	inactive
8	Tmem150b (GeneID 330460)	no change with or without drug	-1.57	0.34	-1.8	0.8	inactive
9	Smad1 (GeneID 17125)	no change with or without drug	0.9	0.51	0.67	1.02	inactive
10	DOCK8	no change with or without drug	1.69	0.51	1.46	1.09	inactive
11	Ttc29 (GeneID 73301)	no change with or without drug	1.24	0.51	1.01	1.05	inactive
12	Purg (GeneID 75029)	no change with or without drug	-1.69	1.52	-2.47	0.79	inactive
13	Chi3l1 (GeneID 12654)	no change with or without drug	-1.91	0.51	-2.14	0.77	inactive
14	Zfp467 (GeneID 68910)	no change with or without drug	-1.12	0.84	-1.57	0.84	inactive
15	BC011467	no change with or without drug	0.11	-0.34	0.45	0.95	inactive
16	Ptpn11 (GeneID 19247)	no change with or without drug	-0.22	-0.17	0	0.92	inactive
17	Plekhh3 (GeneID 217198)	no change with or without drug	0.45	0.34	0.34	0.98	inactive
18	Or4f59 (GeneID 258359)	no change with or without drug	-0.67	-0.67	-0.11	0.88	inactive
19	Myb (GeneID 17863)	no change with or without drug	1.24	-0.17	1.57	1.05	inactive
20	Ppp6r3 (GeneID 52036)	no change with or without drug	-0.9	0.17	-0.9	0.86	inactive
21	Rpe65 (GeneID 19892)	no change with or without drug	-0.9	0.51	-1.12	0.86	inactive
22	Gatad1 (GeneID 67210)	no change with or without drug	-1.12	-1.52	0	0.84	inactive
23	Gm14461 (GeneID 329436)	no change with or without drug	-0.45	-0.84	0.22	0.9	inactive
24	RASIP1	high cell count without drug only	1.91	2.19	0.56	1.11	inactive
25	Defb12 (GeneID 77674)	no change with or without drug	0	0.84	-0.45	0.94	inactive
26	Gmeb2 (GeneID 229004)	no change with or without drug	1.12	-0.51	1.69	1.04	inactive
27	Armcx3 (GeneID 71703)	no change with or without drug	-0.11	-0.51	0.34	0.93	inactive
28	Fasl (GeneID 14103)	no change with or without drug	1.57	1.35	0.79	1.08	inactive
29	Or8u9 (GeneID 259013)	no change with or without drug	-1.12	-1.85	0.22	0.84	inactive
30	Pdcd5 (GeneID 56330)	no change with or without drug	0.22	0.17	0.22	0.96	inactive
31	Pole4 (GeneID 66979)	no change with or without drug	1.12	-0.17	1.46	1.04	inactive
32	Kcnh3 (GeneID 16512)	no change with or without drug	0.67	0.84	0.22	1	inactive
33	Or5b117 (GeneID 258685)	no change with or without drug	0	-0.51	0.45	0.94	inactive
34	Xxylt1 (GeneID 268880)	no change with or without drug	1.35	-1.01	2.36	1.06	inactive
35	Mpp1 (GeneID 17524)	no change with or without drug	-0.67	-0.51	-0.22	0.88	inactive
36	Necap2 (GeneID 66147)	no change with or without drug	-1.69	-0.51	-1.35	0.79	inactive
37	Btg1 (GeneID 12226)	no change with or without drug	-1.12	-0.51	-0.79	0.84	inactive
38	Galnt5 (GeneID 241391)	no change with or without drug	-0.45	-0.17	-0.22	0.9	inactive
39	Slc25a14 (GeneID 20523)	no change with or without drug	0.45	-0.17	0.67	0.98	inactive
40	Cmpk2 (GeneID 22169)	no change with or without drug	-0.9	-1.18	0	0.86	inactive
41	Or52e2 (GeneID 259054)	no change with or without drug	0.34	0	0.45	0.97	inactive
42	Hoxc4 (GeneID 15423)	no change with or without drug	-1.12	-0.17	-1.01	0.84	inactive
43	4933421H10RIK	no change with or without drug	-0.67	0.51	-0.9	0.88	inactive
44	Rps6 (GeneID 20104)	low cell count with and without drug	-6.74	-5.56	-4.83	0.34	inactive
45	Dmrtc1a (GeneID 70887)	no change with or without drug	1.8	1.35	1.01	1.1	inactive
46	Or52w1 (GeneID 258352)	no change with or without drug	-1.91	-1.52	-0.9	0.77	inactive
47	Ptgr3 (GeneID 225791)	no change with or without drug	-0.45	-0.84	0.22	0.9	inactive
48	Fam114a2 (GeneID 67726)	no change with or without drug	-1.12	1.18	-1.8	0.84	inactive
49	Hycc1 (GeneID 84652)	no change with or without drug	0.9	0.51	0.67	1.02	inactive
50	Gtf2e2 (GeneID 68153)	no change with or without drug	0.9	-0.67	1.57	1.02	inactive

Called active, among the entries above:
target	combined z-score class	viability z-score with doxorubicin	viability z-score without drug	z-score of drug to no-drug ratio	doxorubicin viability vs non-targeting	Outcome
1810043J12RIK	low cell count with doxorubicin only	-2.7	0.17	-2.81	0.7	active
